Measured values reported in article PMC9859039, “The conserved centrosomin motif, γTuNA, forms a dimer that directly activates microtubule nucleation by the γ-tubulin ring complex (γTuRC)” (eLife, 2022).
Results are given in words; binding and its absence hold for the method and conditions named. Binding seen in cells or lysates may run through a third protein. These calls come from enrichment with a bait or labelling near it, and not all partners need be listed. Tags and fused reporters may be left off the sequences shown.

The chains behind the UniProt entries cited, without tags or fusion partners.
UniProt Q9DG02: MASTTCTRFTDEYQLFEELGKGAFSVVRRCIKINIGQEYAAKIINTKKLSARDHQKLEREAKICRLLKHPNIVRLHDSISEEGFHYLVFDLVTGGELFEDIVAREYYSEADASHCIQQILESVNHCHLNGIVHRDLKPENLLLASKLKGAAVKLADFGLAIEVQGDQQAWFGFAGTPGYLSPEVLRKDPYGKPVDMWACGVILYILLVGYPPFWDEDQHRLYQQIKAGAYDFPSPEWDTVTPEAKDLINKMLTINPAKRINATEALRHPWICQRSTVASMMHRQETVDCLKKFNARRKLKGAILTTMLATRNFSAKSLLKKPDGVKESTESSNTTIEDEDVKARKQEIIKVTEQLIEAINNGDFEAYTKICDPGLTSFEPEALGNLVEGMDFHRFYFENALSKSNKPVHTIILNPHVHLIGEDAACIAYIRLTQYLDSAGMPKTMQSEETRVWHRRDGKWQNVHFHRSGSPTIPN

Columns and labels:
[1] = target: T1, Strep-His-TEV-HaloTag-3C-human γTuNA (human CDK5RAP2 aa 53–98), wildtype (human); experiment: affinity purification with mass spectrometry; Halo-Magne beads coupled to Halo-γTuNA baits in Xenopus egg extract, 3C elution, TMT multiplexed quantitative mass spectrometry (Quant-IP); enrichment against the Xenopus F75A bait; only the target purified
T1 sequence: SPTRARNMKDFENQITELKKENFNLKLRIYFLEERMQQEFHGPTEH

[2] = target: T2, Strep-His-TEV-HaloTag-3C-Xenopus γTuNA (Xenopus Cdk5rap2 aa 56–101), wildtype (Xenopus laevis); experiment: as above
T2 sequence: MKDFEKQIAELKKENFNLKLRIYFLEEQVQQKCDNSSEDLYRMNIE

Substance	binding [1]	binding [2]
cyclin-dependent kinase 1 (CDK1) subunit A, Xenopus laevis	binds	binds
cyclin-dependent kinase 1 (CDK1) subunit B, Xenopus laevis	binds	binds
nucleoside diphosphate kinase 7 (NME7), Xenopus laevis	binds	binds
type II delta chain of the calmodulin-dependent protein kinase (CAMK2D), Xenopus laevis (from UniProt Q9DG02 1-475)	binds	binds
